Reference: PMC12261760
Results are given in words; binding and its absence hold for the method and conditions named. In cells and extracts the contact can be indirect. Some results given as binding are weak or reduced against the parent protein; the word gives no strength. Values belong to the molecule of their own block, whether it stands above or below them.

Amino acid sequences for entries named in this document (tags omitted). A change or cut given only in a name is not applied to a line headed by its entry.
UniProt P51532: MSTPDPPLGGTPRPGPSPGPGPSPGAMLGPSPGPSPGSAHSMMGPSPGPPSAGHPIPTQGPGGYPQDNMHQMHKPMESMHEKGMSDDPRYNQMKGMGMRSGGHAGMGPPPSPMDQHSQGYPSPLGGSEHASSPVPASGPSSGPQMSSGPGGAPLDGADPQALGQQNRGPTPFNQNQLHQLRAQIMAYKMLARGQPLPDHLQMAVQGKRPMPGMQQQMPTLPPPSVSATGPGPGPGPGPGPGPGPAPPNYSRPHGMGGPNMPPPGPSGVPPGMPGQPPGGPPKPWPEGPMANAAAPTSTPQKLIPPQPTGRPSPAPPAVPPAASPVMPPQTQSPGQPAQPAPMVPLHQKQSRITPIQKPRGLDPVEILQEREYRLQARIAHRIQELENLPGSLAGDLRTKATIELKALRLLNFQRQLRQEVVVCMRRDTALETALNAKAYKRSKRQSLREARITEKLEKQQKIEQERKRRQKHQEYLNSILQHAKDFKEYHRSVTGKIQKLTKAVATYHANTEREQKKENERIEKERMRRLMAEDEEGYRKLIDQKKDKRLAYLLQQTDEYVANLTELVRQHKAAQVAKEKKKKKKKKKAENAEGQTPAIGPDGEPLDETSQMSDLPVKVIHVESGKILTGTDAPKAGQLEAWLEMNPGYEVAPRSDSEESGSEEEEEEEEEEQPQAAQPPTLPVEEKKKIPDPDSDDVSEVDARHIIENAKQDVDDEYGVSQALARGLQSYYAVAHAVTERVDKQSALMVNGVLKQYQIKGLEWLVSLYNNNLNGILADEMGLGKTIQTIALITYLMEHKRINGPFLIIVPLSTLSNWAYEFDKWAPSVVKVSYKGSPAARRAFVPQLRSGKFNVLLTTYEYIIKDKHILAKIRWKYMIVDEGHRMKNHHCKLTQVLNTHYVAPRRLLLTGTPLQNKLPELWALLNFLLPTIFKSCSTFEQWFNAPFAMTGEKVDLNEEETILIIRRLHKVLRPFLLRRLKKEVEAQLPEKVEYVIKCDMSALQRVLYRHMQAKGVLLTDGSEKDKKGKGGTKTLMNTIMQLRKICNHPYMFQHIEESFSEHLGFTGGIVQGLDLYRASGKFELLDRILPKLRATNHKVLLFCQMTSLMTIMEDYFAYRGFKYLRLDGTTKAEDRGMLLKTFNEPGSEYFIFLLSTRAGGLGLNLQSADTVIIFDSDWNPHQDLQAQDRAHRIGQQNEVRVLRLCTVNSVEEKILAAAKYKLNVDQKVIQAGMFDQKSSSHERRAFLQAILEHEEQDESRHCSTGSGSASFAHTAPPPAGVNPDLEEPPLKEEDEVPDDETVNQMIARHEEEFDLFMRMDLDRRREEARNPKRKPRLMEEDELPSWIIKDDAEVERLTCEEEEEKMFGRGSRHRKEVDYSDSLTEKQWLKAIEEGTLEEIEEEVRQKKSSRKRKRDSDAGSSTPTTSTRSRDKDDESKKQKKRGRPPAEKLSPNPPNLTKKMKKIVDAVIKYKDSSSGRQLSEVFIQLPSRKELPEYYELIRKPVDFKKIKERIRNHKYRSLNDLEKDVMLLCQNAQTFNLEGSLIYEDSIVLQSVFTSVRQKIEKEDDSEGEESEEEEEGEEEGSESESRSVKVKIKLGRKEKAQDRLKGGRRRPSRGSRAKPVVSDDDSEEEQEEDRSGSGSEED
UniProt Q09472: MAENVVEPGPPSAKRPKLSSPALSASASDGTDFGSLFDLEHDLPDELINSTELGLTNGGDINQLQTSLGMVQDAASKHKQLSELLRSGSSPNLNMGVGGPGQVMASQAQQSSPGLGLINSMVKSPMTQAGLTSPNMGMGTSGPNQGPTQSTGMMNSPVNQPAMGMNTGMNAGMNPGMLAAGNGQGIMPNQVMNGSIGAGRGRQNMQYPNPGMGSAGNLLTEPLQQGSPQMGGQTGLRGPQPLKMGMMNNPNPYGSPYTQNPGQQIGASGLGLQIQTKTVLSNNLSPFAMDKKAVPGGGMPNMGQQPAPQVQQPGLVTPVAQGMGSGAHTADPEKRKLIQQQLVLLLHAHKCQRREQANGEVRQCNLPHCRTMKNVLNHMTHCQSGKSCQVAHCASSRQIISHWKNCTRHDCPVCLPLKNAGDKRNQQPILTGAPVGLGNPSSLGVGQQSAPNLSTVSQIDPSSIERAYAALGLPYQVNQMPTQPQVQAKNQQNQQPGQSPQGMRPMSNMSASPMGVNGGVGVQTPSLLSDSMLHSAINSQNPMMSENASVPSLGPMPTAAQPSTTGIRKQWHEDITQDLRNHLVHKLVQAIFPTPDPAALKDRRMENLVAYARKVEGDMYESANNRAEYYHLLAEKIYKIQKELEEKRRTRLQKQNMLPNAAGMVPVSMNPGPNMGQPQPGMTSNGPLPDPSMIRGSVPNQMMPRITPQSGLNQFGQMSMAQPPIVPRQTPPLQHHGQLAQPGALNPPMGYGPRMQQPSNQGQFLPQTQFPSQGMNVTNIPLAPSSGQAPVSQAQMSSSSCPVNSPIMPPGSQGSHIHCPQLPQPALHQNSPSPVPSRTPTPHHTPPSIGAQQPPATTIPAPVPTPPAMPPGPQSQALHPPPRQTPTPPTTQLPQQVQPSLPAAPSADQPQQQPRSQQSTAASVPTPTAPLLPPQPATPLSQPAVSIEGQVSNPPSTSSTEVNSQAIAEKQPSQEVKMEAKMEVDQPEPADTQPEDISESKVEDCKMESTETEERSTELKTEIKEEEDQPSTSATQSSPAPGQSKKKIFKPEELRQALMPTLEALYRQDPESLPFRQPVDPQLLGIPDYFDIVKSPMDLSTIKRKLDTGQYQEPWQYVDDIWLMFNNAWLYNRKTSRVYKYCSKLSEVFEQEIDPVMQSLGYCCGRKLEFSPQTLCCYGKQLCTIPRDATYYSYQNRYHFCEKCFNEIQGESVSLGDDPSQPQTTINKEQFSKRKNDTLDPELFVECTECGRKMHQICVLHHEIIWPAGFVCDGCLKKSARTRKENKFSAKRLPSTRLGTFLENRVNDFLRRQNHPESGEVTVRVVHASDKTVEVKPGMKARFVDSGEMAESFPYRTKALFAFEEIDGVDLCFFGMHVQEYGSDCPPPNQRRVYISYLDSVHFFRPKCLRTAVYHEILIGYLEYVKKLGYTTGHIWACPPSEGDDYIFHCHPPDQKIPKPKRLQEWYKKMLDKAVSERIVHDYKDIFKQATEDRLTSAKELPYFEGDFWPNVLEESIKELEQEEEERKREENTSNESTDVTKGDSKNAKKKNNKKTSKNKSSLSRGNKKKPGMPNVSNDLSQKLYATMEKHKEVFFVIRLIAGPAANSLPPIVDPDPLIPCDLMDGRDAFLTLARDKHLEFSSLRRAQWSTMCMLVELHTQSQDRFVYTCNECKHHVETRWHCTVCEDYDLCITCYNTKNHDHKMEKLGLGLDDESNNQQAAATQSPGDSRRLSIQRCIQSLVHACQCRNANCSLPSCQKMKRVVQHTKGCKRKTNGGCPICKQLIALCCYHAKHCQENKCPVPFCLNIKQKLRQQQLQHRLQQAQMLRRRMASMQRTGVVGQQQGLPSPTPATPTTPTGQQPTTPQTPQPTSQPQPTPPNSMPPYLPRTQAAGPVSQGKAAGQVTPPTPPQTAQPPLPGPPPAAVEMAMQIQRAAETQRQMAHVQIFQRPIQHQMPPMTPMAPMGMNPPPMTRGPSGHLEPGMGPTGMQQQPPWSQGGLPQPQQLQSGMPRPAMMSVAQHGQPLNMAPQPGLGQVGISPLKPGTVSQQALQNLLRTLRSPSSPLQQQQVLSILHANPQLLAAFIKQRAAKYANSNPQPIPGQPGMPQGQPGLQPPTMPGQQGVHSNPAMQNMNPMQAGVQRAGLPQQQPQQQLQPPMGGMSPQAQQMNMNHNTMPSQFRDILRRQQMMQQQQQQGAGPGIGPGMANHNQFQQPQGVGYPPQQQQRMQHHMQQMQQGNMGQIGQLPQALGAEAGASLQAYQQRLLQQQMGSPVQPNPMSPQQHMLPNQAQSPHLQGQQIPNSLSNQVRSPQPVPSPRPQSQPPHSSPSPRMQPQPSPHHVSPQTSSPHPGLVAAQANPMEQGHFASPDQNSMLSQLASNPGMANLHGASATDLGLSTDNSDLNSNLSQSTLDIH
UniProt O15379: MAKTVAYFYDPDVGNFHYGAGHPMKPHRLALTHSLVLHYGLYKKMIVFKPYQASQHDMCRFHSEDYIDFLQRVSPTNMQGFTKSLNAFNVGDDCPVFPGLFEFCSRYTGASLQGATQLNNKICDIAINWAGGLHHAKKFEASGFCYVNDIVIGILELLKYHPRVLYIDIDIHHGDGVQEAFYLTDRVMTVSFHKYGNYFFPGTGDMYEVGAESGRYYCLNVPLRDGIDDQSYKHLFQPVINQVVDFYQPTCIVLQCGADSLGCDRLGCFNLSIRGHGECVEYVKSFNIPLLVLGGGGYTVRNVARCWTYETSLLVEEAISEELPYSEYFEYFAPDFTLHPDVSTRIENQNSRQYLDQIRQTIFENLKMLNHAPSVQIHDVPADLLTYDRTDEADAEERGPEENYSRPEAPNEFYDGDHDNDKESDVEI

Columns and labels:
[1] = molecular target: Brahma-related gene 1 (BRG1) (human) (UniProt P51532); test: co-IP; immunoprecipitation with a BRG1 antibody or a P300 antibody, partners detected in the precipitate; cells and buffer not stated
[2] = molecular target: E1A Binding Protein P300 (human (endogenous in CRC cells, cell line not stated)) (UniProt Q09472); test: as above

binding [1]: binds
Molecule: Histone deacetylase 3 (from UniProt O15379 1-428)

binding [1]: binds
Molecule: E1A Binding Protein P300 (from UniProt Q09472 1-2414)

binding [2]: binds
B1: ETS transcription factor ERG (protein, UniProt P11308 1-479)
chain: MASTIKEALSVVSEDQSLFECAYGTPHLAKTEMTASSSSDYGQTSKMSPRVPQQDWLSQPPARVTIKMECNPSQVNGSRNSPDECSVAKGGKMVGSPDTVGMNYGSYMEEKHMPPPNMTTNERRVIVPADPTLWSTDHVRQWLEWAVKEYGLPDVNILLFQNIDGKELCKMTKDDFQRLTPSYNADILLSHLHYLRETPLPHLTSDDVDKALQNSPRLMHARNTGGAAFIFPNTSVYPEATQRITTRPDLPYEPPRRSAWTGHGHPTPQSKAAQPSPSTVPKTEDQRPQLDPYQILGPTSSRLANPGSGQIQLWQFLLELLSDSSNSSCITWEGTNGEFKMTDPDEVARRWGERKSKPNMNYDKLSRALRYYYDKNIMTKVHGKRYAYKFDFHGIAQALQPHPPESSLYKYPSDLPYMGSYHAHPQKMNFVAPHPPALPVTSSSFFAAPNPYWNSPTGGIYPNTRLPTSHMPSHLGTYY
